According to article PMC5361201:
These are yes or no findings as the source states them, for the method shown.

Biological target: T1, Rassf5A-RA, Rassf5A protein containing only Ras binding domain (200–365) (mouse) (UniProt Q5EBH1)
T1 sequence: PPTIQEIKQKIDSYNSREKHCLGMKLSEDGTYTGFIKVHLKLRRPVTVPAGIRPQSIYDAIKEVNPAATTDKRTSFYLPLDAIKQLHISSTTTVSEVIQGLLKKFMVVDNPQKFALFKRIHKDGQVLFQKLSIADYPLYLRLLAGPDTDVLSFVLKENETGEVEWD
Experiment: condition: 50 μM (highest analyte concentration, from the methods); SPR; BIAcore T200; GST-Rassf constructs captured on immobilised anti-GST antibody (GST alone on the reference channel); Mst1 constructs as analytes, 0.7-50 μM, flow 30–45 μl/min, HBS-N running buffer, 25 °C; surface regenerated and ligand freshly captured for each concentration; 1:1 binding model, fitted locally; both purified

B1: Mst1-C, Mst1 kinase containing only SARAH domain (432–487) (domain or fragment, UniProt Q13043 432-487)
chain: DYEFLKSWTVEDLQKRLLALDPMMEQEIEEIRQKYQSKRQPILDAIEAKKRRQQNF
binding: no binding
